These are yes or no findings as the source states them, for the method shown. Some entries that bind do so weakly or less than the wild type.
Molecular target: SRY (sex-determining region Y) box transcription factor 18 (SOX18) (human) (UniProt P35713)
Experiment: AlphaScreen or HTRF; AlphaLISAScreen on cell-free co-expressed protein pairs (N-terminal enhanced GFP or C-terminal mCherry tags); anti-GFP acceptor beads, biotinylated anti-mCherry nanobody, streptavidin donor beads; 90 minutes at room temperature; DMSO vehicle control defined as 100% binding (0% inhibition), SOX18:FRB control defined as 100% inhibition

The chains behind the UniProt entries cited, without tags or fusion partners.
UniProt P35713: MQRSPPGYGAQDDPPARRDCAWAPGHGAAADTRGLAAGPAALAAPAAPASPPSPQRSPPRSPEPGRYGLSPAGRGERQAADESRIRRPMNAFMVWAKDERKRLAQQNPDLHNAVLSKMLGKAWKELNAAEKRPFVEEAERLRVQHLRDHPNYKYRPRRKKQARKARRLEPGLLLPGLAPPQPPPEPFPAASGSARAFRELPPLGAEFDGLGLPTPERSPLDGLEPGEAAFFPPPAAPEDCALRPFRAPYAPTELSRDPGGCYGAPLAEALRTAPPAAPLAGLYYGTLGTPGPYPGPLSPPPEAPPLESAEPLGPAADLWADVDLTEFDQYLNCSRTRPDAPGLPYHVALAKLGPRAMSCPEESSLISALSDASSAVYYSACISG
UniProt Q06330: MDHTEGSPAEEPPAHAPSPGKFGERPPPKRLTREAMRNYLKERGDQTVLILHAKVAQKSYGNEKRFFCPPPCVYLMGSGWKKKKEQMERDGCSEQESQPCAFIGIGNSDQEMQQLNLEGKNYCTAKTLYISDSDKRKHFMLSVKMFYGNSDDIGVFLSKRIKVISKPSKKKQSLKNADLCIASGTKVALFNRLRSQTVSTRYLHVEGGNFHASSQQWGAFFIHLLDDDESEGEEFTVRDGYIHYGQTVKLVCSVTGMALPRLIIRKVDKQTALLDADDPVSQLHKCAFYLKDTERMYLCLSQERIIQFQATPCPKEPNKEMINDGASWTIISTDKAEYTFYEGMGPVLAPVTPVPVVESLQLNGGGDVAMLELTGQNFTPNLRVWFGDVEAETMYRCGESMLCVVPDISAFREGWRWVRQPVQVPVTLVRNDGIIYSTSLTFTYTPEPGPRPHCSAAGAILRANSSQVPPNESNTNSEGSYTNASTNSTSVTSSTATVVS

Substance | binding
recombinant signal binding protein for immunoglobulin κ J region (RBPJ) (from UniProt Q06330 1-500) | binds
SRY (sex-determining region Y) box transcription factor 18 (SOX18) (from UniProt P35713 1-384) | binds
